Values from PubChem BioAssay AID1259274 (Sanger Institute, 2017)
Assay: 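Kinase knock-downs that cut colorectal cancer cell viability or boost drug killing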 (primary screen). Cells: human RKO colorectal cancer cells. Reagent: siRNA pool against human genes. Challenge: anchor drugs BYL719 at 1 µM, cetuximab at 5 µg/ml or trametinib at 10 nM; DMSO vehicle as the no-drug arm. Measured: 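Viability of cells versus control pool 2 (non-targeting) averaged across replicates; knock-down-only robust z-score; for every anchor drug (BYL719, cetuximab, trametinib) a synergy score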. Direction: viability z-score, siRNA alone: higher = more viable cells; low values mean essential gene. Active means: 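Essential when the robust viability z-score with siRNA only falls below -3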. Meaning of the calls: active = essential when knocked down alone; inactive = no change alone.
The deposit covers 794 reagents; shown is a random part of them. 11 of them (1.4%) count as active. 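Calls rest on knock-down without drug only; synergy scores with anchor drugs were not used for the essential call.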 Reagents against one gene are numbered here. Further read-outs or replicates are left out here. Not stated in the record: the amount of reagent, the time to read-out.

| gene symbol | reagent no. | viability z-score, siRNA alone | outcome |
| --- | --- | --- | --- |
| OBSCN | 1 | 0.152 | inactive |
| NEK9 (NIMA related kinase 9) | 1 | 0.879 | inactive |
| EIF2AK1 (eukaryotic translation initiation factor 2 alpha kinase 1) | 1 | 0.0182 | inactive |
| KCNH8 (potassium voltage-gated channel subfamily H member 8) | 1 | 1.19 | inactive |
| WEE1 (WEE1 G2 checkpoint kinase) | 1 | -1.79 | inactive |
| TWF2 (twinfilin actin binding protein 2) | 1 | -0.721 | inactive |
| TSSK3 (testis specific serine kinase 3) | 1 | -0.0995 | inactive |
| TTBK2 (tau tubulin kinase 2) | 1 | -0.622 | inactive |
| CDK4 (cyclin dependent kinase 4) | 1 | 0.332 | inactive |
| INSRR (insulin receptor related receptor) | 1 | -0.72 | inactive |
| MAPKAPK5 (MAPK activated protein kinase 5) | 1 | 0.569 | inactive |
| DSTYK (dual serine/threonine and tyrosine protein kinase) | 1 | 0.62 | inactive |
| GUCY2D (guanylate cyclase 2D, retinal) | 1 | -1.22 | inactive |
| SIK1 (salt inducible kinase 1) | 1 | 0.0405 | inactive |
| PIP5KL1 (phosphatidylinositol-4-phosphate 5-kinase like 1) | 1 | -0.844 | inactive |
| BMX (BMX non-receptor tyrosine kinase) | 1 | 0.388 | inactive |
| KMT2B (lysine methyltransferase 2B) | 1 | -1.34 | inactive |
| BRD4 (bromodomain containing 4) | 1 | -2.07 | inactive |
| PIM1 (Pim-1 proto-oncogene, serine/threonine kinase) | 1 | 0.114 | inactive |
| BMPR1A (bone morphogenetic protein receptor type 1A) | 1 | -0.173 | inactive |
| MASTL (microtubule associated serine/threonine kinase like) | 1 | -0.387 | inactive |
| DCLK3 (doublecortin like kinase 3) | 1 | 0.17 | inactive |
| MAPK10 (mitogen-activated protein kinase 10) | 1 | 1.19 | inactive |
| EPHA10 (EPH receptor A10) | 1 | -0.783 | inactive |
| CDK5R1 (cyclin dependent kinase 5 regulatory subunit 1) | 1 | 0.242 | inactive |
| CAMK2B (calcium/calmodulin dependent protein kinase II beta) | 1 | 1.19 | inactive |
| CDC42BPA (CDC42 binding protein kinase alpha) | 1 | -1.58 | inactive |
| BMAL1 (basic helix-loop-helix ARNT like 1) | 1 | -2.19 | inactive |
| FLT1 (fms related receptor tyrosine kinase 1) | 1 | 1.19 | inactive |
| MAP3K7 (mitogen-activated protein kinase kinase kinase 7) | 1 | 1.19 | inactive |
| MAPK12 (mitogen-activated protein kinase 12) | 1 | -1.29 | inactive |
| GATA3 (GATA binding protein 3) | 1 | 0.196 | inactive |
| PRKCQ (protein kinase C theta) | 1 | 1.19 | inactive |
| LMBR1 (limb development membrane protein 1) | 1 | 1.08 | inactive |
| DGKG (diacylglycerol kinase gamma) | 1 | 0.595 | inactive |
| RBKS (ribokinase) | 1 | -0.169 | inactive |
| TBX3 (T-box transcription factor 3) | 1 | -1.06 | inactive |
| GRK7 (G protein-coupled receptor kinase 7) | 1 | -0.664 | inactive |
| CDK14 (cyclin dependent kinase 14) | 1 | 1.19 | inactive |
| PIK3C3 (phosphatidylinositol 3-kinase catalytic subunit type 3) | 1 | -0.0819 | inactive |
| CSNK1G1 (casein kinase 1 gamma 1) | 1 | -3.27 | active |
| ILK (integrin linked kinase) | 1 | 0.0872 | inactive |
| ILK (integrin linked kinase) | 2 | -1.23 | inactive |
| PRKAB2 (protein kinase AMP-activated non-catalytic subunit beta 2) | 1 | -0.00849 | inactive |
| PIP4K2C (phosphatidylinositol-5-phosphate 4-kinase type 2 gamma) | 1 | 0.41 | inactive |
| BCKDK (branched chain keto acid dehydrogenase kinase) | 1 | 1.19 | inactive |
| MAP3K11 (mitogen-activated protein kinase kinase kinase 11) | 1 | 0.634 | inactive |
| STK17B (serine/threonine kinase 17b) | 1 | 0.409 | inactive |
| MERTK (MER proto-oncogene, tyrosine kinase) | 1 | 0.544 | inactive |
| MTOR (mechanistic target of rapamycin kinase) | 1 | -0.0421 | inactive |

Individual results from the list.
Entry of PIK3C3 (phosphatidylinositol 3-kinase catalytic subunit type 3) in “outcome”: inactive
MERTK (MER proto-oncogene, tyrosine kinase), viability z-score, siRNA alone = 0.544
Result for BRD4 (bromodomain containing 4) under “outcome”: inactive
For “outcome”, GRK7 (G protein-coupled receptor kinase 7) has inactive
Result for PRKCQ (protein kinase C theta) under “viability z-score, siRNA alone”: 1.19
Value of EPHA10 (EPH receptor A10) in “outcome”: inactive
